# In PubChem BioAssay AID1347431 (National Center for Advancing Translational Sciences (NCATS), 2020):
# Out of some 1,200 compounds screened, fewer than 10 were called active. Calls come from the whole dose curve; as a rule, active = well fitted curve in the direction sought with a large enough effect; inconclusive = small, poorly fitted or top-dose-only effect, or another doubt; inactive = no such curve, though single readings can be large or run the other way. The list shows a part of the results.
# Assay: Confirmatory qHTS assay for inhibitors of Activation Induced Cytidine Deaminase (AID): UDG signals; note: 0% is about no effect
# Details: UDG coupled enzyme activity counter-screen; at 115 µM (top of the series) unless noted
# Method in brief: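 Fluorescence at 560 nm excitation/665 nm emission reports UDG activity, read after NaOH quench of a 4 h room-temperature reaction of DJC20/DJC23 substrates with AID (1 uM, 4/3x) and UDG (2 U/mL, 4/3x); compounds at 7.32 nM - 114 uM final, preincubated 10 min.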
row,SMILES,"activity change, negative = inhibition"
1,Cn1c2ccccc2c2c(C(=O)N3CCN(c4cccc(C(F)(F)F)c4)CC3)cn(C3CCCCC3)c(=O)c21,inactive: -7.55%
2,Cc1cccc(Cn2nnc3c(=O)[nH]c(C4CCCN(C(=O)c5ccc(C(C)(C)C)cc5)C4)nc32)c1 (stereo not given),inactive: -5.24%
3,COc1ccccc1C(=O)NCCc1csc(-c2ccc(C(F)(F)F)cc2)n1,inactive: -1.07%
4,CCCCN(C)C(=O)c1ccc2c(c1)N(Cc1cccc(Cl)c1)C(=O)c1ccccc1S2=O (stereo not given),inactive: -11%
5,Cc1cccc(NC(=O)CCn2nc(-c3ccccc3)c3ccccc3c2=O)c1,inactive: -11%
6,CCOC(=O)c1cc(-c2ccc(C)cc2)n(CCC(=O)Nc2ccc(OC)c(OC)c2)c1C,inactive: 1.84%
7,O=C(CCn1c(=O)c2cccn2c2cccnc21)N1CCN(c2cccc(Cl)c2)CC1,inactive: -5.29%
8,CCc1nn2c(=O)cc(COC(=O)C(c3ccccc3)c3ccccc3)nc2s1,inactive: 6.6%
9,COc1ccccc1CNC(=O)c1cnn2c(C)c(Cc3ccc(F)cc3)c(C)nc12,inactive: -5.21%
10,Fc1ccc(CNc2nc(-c3ccccc3)cc(C(F)(F)F)n2)cc1,inactive: -4.61%
11,Cc1ccc(Cl)cc1N1CCN(C(=O)c2ccc(C)c(-n3c(C)nc4cccnc43)c2)CC1,inactive: -4.12%
12,CCc1nc2ccc(C(=O)N3CCN(c4ccc(Cl)cc4)CC3)cc2nc1CC,inactive: -11.5%
13,Cc1nnc(SCC(=O)NCc2ccccc2F)c2nn(-c3ccc(Cl)cc3)c(C)c12,inactive: 4.35%
14,COCCc1nn2c(=O)cc(COC(=O)c3ccc(C(C)(C)C)cc3)nc2s1,inactive: 6.29%
15,O=C(c1ccc2c(Cl)c3c(nc2c1)CCCC3)N1CCN(c2cccc(Cl)c2)CC1,inactive: 3.09%
16,Cc1ccc(-n2ncc(C(=O)N3CCN(Cc4ccccc4)CC3)c2C2CCN(C(=O)OC(C)(C)C)CC2)c(C)c1,inactive: -9.77%
17,COc1ccc(CCNC(=O)CS(=O)Cc2nc(-c3ccc(C)cc3)oc2C)c(OC)c1 (stereo not given),inactive: -3.01%
18,Cc1ccc(Cl)cc1N1CCN(C(=O)Cn2cnc3nc4c(cc3c2=O)CCCC4)CC1,inactive: -9.53%
19,COc1ccc(C(=O)N(Cc2ccc(N(C)C)cc2)Cc2ccco2)cc1Cl,inactive: -6.58%
20,COc1cccc(Cn2c(=O)n(CC3CCC(C(=O)N4CCCCC4)CC3)c(=O)c3sccc32)c1 (stereo not given),inactive: -4.73%

row,SMILES,"activity change, negative = inhibition"
1,CCOC(=O)C1CCCN(c2nc3c(S(=O)(=O)c4ccc(CC)cc4)nnn3c3ccc(Cl)cc23)C1 (stereo not given),inactive: 1.14%
2,CCN(CC)C(=O)c1ccc2c(c1)N(Cc1ccc(C(F)(F)F)cc1)C(=O)c1ccccc1S2,inactive: -11.1%
3,CC(=O)N1CCc2c(sc3c2c(=O)n(Cc2ccccc2)c(=O)n3Cc2ccccc2F)C1,inactive: -1.57%
4,O=C(Nc1cccc(Cl)c1)C1CCCN(c2nn3cc(-c4ccc(F)cc4)nc3s2)C1 (stereo not given),inactive: -0.847%
5,CCOc1ccc(C(=O)c2cn(CC(=O)Nc3ccc4c(c3)OCO4)c3ccc(OC)cc3c2=O)cc1,inactive: -6.11%
6,Cc1nc2nc(NC(=O)c3ccc(C(C)(C)C)cc3)[nH]n2c(=O)c1Cl,inactive: 2.15%
7,COc1ccccc1CNC(=O)CSc1nc2nc(C)c(Cc3ccccc3Cl)c(C)n2n1,inactive: 3.15%
8,CCOc1ccc(CCNC(=O)c2nc(-c3cccc(F)c3)n3c2CCCCC3)cc1OCC,inactive: -9.3%
9,Cc1ccc(Nc2c(-c3ccc(C)cc3)nc3cnccn23)cc1,inactive: -5.89%
10,C=Cc1ccc(CSc2nc(-c3ccc(OC)cc3)nc3c2Cc2c(CO)cnc(C)c2O3)cc1,inactive: -9.8%
11,O=C(Cc1ccc(F)cc1)N1CCC(c2nc3c(nnn3Cc3ccc(Cl)cc3)c(=O)[nH]2)CC1,inactive: 1.36%
12,CCc1ccc(CNC(=O)c2ccc(CSc3nc4ccncc4n3Cc3ccccc3)cc2)cc1,inactive: -3.79%
13,Cc1ccn2c(Nc3ccccc3C)c(-c3ccccn3)nc2c1,inactive: -21.6%
14,Cc1ccc(C2C=C(c3ccc(Cl)cc3)Nc3nc(NS(=O)(=O)c4ccccc4)nn32)cc1 (stereo not given),inactive: 2.47%
15,C=CCc1ccccc1OCCSc1nc(-c2ccc(C(C)(C)C)cc2)nc2cc(=O)[nH]n12,inactive: -0.601%
16,CCOC(=O)c1cccc(NC(=O)c2oc3c(c2C)-c2[nH]ncc2CC3)c1,inactive: -8.63%
17,O=C(COc1ccccc1)NCc1ccc2c(c1)CCN2C(=O)c1ccc(F)cc1,inactive: 1.55%
18,Cc1cccc(CNC(=O)c2oc3c(c2C)-c2nn(Cc4ccccc4Cl)cc2CC3)c1,inactive: 6.73%
19,Cc1ccc(Cl)cc1NC(=O)c1oc2c(c1C)-c1[nH]ncc1CC2,inactive: -4.49%
20,CCN(CC)c1cc(C)c2cc(NC(=O)c3ccc(OC)c(OC)c3)ccc2n1,inactive: -11%

# Some of these compounds in order of count of non-hydrogen atoms, smallest number first.
row,SMILES,"activity change, negative = inhibition"
14,COCCc1nn2c(=O)cc(COC(=O)c3ccc(C(C)(C)C)cc3)nc2s1,inactive: 6.29%
8,CCc1nn2c(=O)cc(COC(=O)C(c3ccccc3)c3ccccc3)nc2s1,inactive: 6.6%
17,COc1ccc(CCNC(=O)CS(=O)Cc2nc(-c3ccc(C)cc3)oc2C)c(OC)c1 (stereo not given),inactive: -3.01%
